This test has as its target T1, human ZDHHC6 (WT), Myc-tagged (human) (UniProt Q9H6R6).
T1 sequence: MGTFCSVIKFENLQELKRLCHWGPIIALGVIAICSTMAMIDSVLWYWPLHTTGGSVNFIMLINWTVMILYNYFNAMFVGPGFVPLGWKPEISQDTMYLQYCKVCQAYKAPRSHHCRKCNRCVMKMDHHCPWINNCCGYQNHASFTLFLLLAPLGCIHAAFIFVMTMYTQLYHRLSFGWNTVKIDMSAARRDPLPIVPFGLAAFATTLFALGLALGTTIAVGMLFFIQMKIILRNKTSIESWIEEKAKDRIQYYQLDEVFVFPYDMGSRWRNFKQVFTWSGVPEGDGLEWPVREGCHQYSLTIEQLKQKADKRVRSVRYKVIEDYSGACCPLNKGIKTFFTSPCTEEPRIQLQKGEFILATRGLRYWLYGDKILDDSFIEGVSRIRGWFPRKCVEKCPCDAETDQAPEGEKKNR
The test is described as follows: co-IP; HeLa co-transfected with myc-DHHC6 and flag-tagged DHHC16 for 24 hr; immunoprecipitated with myc or flag antibodies, immunoblot with anti-myc or anti-flag; lysis in 0.5% Nonidet P-40, 500 mM Tris pH 7.4, 20 mM EDTA, 4°C.

No constants are given. Whether binding was seen depends on the method and setting. In cells and extracts the contact can be indirect. A result given as binding can be weak or reduced; the word gives no strength. Where a sequence is shown, tags or fusion partners need not be part of it.

Consider human FLAG-ZDHHC16 (enzyme), for which the binding result is reported as “binds”.
